# Laboratory results: PubChem BioAssay AID1259425 (University of Nebraska Medical Center, 2018)
# Aim: 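Find knockdowns that reproduce the gene expression pattern seen when KSR1 is lost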 (primary screen)
# System: HCT116 human colon cancer cells
# Reagent: siRNA pool against human genes, 50 nM siRNA
# Detection: 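After 50 nM siRNA pool, branched-DNA assay measures six marker transcripts per well, minus blank, normalised to the geometric mean of two housekeeping transcripts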
# Reading the numbers: BNIP3L mRNA: higher = more BNIP3L transcript after knockdown; NDRG1 mRNA: higher = more NDRG1 transcript after knockdown; BNIP3 mRNA: higher = more BNIP3 transcript after knockdown; ALDOC mRNA: higher = more ALDOC transcript after knockdown
# Shown is one part, drawn at random, of about 14,000 deposited reagents. Some reagents were tested in more than one well and are listed for each. Not all columns of the deposit are shown. Not given: the time to read-out.
The first 2 entries as a preview:
target,"BNIP3L mRNA, set 1","NDRG1 mRNA, set 1","BNIP3 mRNA, set 1","ALDOC mRNA, set 1"
ITGA7,0.122,0.174,0.283,0.0158
CLDN1,0.0785,0.107,0.299,0.0106

Main list, repeating the preview:
target,"BNIP3L mRNA, set 1","NDRG1 mRNA, set 1","BNIP3 mRNA, set 1","ALDOC mRNA, set 1"
ITGA7,0.122,0.174,0.283,0.0158
CLDN1,0.0785,0.107,0.299,0.0106
NOP16,0.158,0.412,0.427,0.0922
RMND5A,0.0664,0.0868,0.31,0.0473
ZKSCAN5,0.058,0.165,0.201,0.0205
CHAD,0.17,0.33,0.25,0.0208
NUDT9,0.287,0.202,0.302,0.0572
NUBP2,0.126,0.202,0.287,0.0118
PTCRA,0.0594,0.108,0.187,0.0237
CLDN18,0.234,0.278,0.373,0.0646
RPL18A,0.595,0.331,0.632,0.0334
PRKRIP1,0.242,0.29,0.287,0.0595
ZCCHC10,0.12,0.185,0.422,0.0281
MRPL17,0.174,0.209,0.421,0.13
PDGFC,0.0914,0.0775,0.279,0.0235
ACSL6,0.145,0.263,0.326,0.0394
ACSL6,0.102,0.198,0.317,0.0144
SLC47A1,0.0699,0.157,0.324,0.0601
ACBD3,0.154,0.224,0.448,0.143
TRIOBP,0.0916,0.269,0.25,0.00635
